Experimental data taken from PMC7393113.
These are yes or no findings as the source states them, for the method shown. In cells and extracts the contact can be indirect. Some binding calls cover weakened binding; strength is not graded here.

The chains behind the UniProt entries cited, without tags or fusion partners.
UniProt P42227: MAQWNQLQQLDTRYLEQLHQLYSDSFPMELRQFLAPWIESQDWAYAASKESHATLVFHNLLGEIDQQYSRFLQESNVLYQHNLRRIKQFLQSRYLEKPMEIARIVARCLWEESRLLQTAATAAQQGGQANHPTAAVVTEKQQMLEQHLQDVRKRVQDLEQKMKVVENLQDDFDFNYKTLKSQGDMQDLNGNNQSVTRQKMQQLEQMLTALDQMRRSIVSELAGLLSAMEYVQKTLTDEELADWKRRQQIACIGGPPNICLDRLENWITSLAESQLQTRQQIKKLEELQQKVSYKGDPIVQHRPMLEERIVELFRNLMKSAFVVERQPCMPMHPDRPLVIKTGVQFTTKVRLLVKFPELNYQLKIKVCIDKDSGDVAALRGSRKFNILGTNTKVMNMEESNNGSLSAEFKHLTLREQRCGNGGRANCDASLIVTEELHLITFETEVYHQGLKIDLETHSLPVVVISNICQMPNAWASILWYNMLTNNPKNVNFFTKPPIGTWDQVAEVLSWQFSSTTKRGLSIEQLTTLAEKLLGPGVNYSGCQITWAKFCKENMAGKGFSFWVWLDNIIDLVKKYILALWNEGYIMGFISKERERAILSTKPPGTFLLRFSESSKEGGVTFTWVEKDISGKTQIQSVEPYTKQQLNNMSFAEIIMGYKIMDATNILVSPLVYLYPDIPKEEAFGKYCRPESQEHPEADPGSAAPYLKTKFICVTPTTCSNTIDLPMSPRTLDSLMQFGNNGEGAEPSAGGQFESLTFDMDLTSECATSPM

Biological target: T1, TRAF6 (mouse (endogenous in BMDMs)) (UniProt P70196)
T1 sequence: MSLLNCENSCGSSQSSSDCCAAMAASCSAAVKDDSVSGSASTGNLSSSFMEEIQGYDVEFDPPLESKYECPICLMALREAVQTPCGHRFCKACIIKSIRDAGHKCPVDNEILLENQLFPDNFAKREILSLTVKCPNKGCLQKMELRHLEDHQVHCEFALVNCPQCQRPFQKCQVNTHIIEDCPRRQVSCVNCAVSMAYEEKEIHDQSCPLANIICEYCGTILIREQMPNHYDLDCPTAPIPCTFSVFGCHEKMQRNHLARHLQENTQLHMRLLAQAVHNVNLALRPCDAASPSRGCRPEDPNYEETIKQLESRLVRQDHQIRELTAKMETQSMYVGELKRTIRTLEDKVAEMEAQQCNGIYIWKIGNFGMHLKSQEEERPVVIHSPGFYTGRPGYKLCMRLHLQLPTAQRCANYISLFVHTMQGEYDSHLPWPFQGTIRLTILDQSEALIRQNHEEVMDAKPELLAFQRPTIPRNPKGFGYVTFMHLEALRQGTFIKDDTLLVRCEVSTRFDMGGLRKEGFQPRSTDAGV
Experiment: co-IP; BMDMs stimulated with LPS (1 ug/ml) for indicated times; TRAF6 immunoprecipitated from cellular lysates, blot with anti-STAT3

With STAT3 (from UniProt P42227 1-770) the binding was “binds”.
